Assay results: the supplement of paper PMC8497498
This is one part of the list. The data scatter; read single values as rough.

How the values were obtained:
Conditions in all cases: 10 µM
[1] = tested on: Plasmodium vivax liver stage (primary human hepatocyte culture); assay: hypnozoite quantity inhibition (% inhibition); higher = more active against hypnozoites
[2] = tested on: Plasmodium vivax liver stage (primary human hepatocyte culture); assay: schizont net growth area inhibition (% inhibition); higher = more active against liver schizonts
[3] = tested on: primary human hepatocytes; assay: hepatic nuclei reduction relative to DMSO (100 - % of negative control); higher = more toxic to hepatocytes
[4] = assay mode: Prophylactic (treated before or shortly after infection), fixed day 6 post-infection
[5] = assay mode: Radical Cure (treated from day 5 post-infection for 3 days), fixed day 8 post-infection

| SMILES | hypnozoite quantity inhibition [1, 4] | hypnozoite quantity inhibition [1, 5] | schizont net growth area inhibition [2, 4] | schizont net growth area inhibition [2, 5] | hepatic nuclei reduction [3, 4] [%] | hepatic nuclei reduction [3, 5] [%] |
| --- | --- | --- | --- | --- | --- | --- |
| CCOc1ccc(Nc2c3ccccc3nc3ccccc23)cc1 | 12 | 40.1 | 7.4 | 29.4 | -6 | -2 |
| COc1ccc2nc(C)cc(Nc3cccc(O)c3)c2c1 | 3.8 | 12.8 | -28.4 | 38.9 | -4 | -5 |
| Cc1ccc(NC(=O)Nc2cccc(Cl)c2)cc1F | -25.1 | 38.2 | 33.5 | 36 | -11 | -4 |
| O=C(NCc1ccco1)N1CCN(Cc2ccc(Cl)s2)CC1 | -41 | -2 | 13.8 | -115 | 4 | -4 |
| CC(=O)Nc1ccc(NC(=O)c2cc(-c3cc(Cl)ccc3O)[nH]n2)cc1 | -28 | 9 | -6.2 | -34.8 | 1 | 4 |
| O=C(c1ccco1)N(CCCn1ccnc1)c1nc2c(Cl)cccc2s1 | -37 | -4 | 28 | -107 | -10 | -10 |
| OC(CNC1CCCC1)Cn1c2ccccc2c2ccccc21 (stereo not given) | 69.5 | 29.2 | 45.8 | -51.1 | 6 | -8 |
| Cc1ccc(C(=O)c2oc3ccc4c(C)cc(=O)oc4c3c2C)cc1 | -48.1 | 35.9 | -132 | -37.5 | 0 | 2 |
| CCOc1c(Cl)cc(CNCC(O)c2ccccc2)cc1OC (stereo not given) | -15.8 | 23.7 | -8.6 | 19.4 | 9 | -9 |
| CN1CCN(c2nccc3nc(-c4ccc(F)c(F)c4)[nH]c23)CC1 | -93 | -41 | -59.8 | -0.9 | -11 | -2 |
| Cc1cc(C(=O)Nc2cnn(Cc3ccc(Cl)cc3Cl)c2)no1 | -43 | -72 | 37.8 | -114 | -1 | 0 |
| Cc1cccc(N2C(=O)C3C(C2=O)C2(c4ccccc4)C(=O)C3(c3ccccc3)C(c3ccc4c(c3)OCO4)=C2c2ccc3c(c2)OCO3)c1 (stereo not given) | -31.8 | 42.7 | 32.2 | -24.8 | -7 | -3 |
| Cc1nn(C)cc1C(C)Nc1nncc(-c2ccc(C(F)(F)F)cc2)n1 (stereo not given) | -61 | 47 | 48.8 | 73.6 | -6 | -4 |
| CNC(=O)C1Cc2ccccc2N1C(=O)Cc1ccc(F)cc1 (stereo not given) | 14 | -23 | 32.7 | -33.7 | 0 | -5 |
| c1ccc2c(c1)CN(CC1CC1)CC1(CCN(Cc3c[nH]c4cnccc34)CC1)O2 | -13 | -20 | -4.3 | 57.6 | -4 | 0 |
| O=C(NC1CCCc2c1[nH]c1ccc(Cl)cc21)c1ccccn1 (stereo not given) | 27 | -24 | -115 | -15.1 | 3 | -14 |
| c1ccc(-c2cc(N3CCCCC3)c3ccccc3n2)nc1 | -4 | -2 | 14.9 | -2.1 | -2 | 5 |
| c1ccc(Oc2ccc(-c3cc(C4CCOCC4)[nH]n3)cc2)cc1 | 5 | -36 | -45.5 | -48.7 | -2 | 5 |
| CCc1ccc([C@@H]2C[C@H](C(F)(F)F)n3ncc(C(=O)NCc4ccc(OC)cc4)c3N2)cc1 | -19 | -25 | -43.8 | -181 | -11 | -6 |
| Cc1ccc(S(=O)(=O)Nc2ccc(CN3CCN(C(=O)c4cccc(C#N)c4)CC3)cc2)cc1 | 1 | 27 | -6.8 | -34.4 | 3 | 2 |
| Clc1ccc(-n2cc(COc3ccnc4ccccc34)nn2)cc1 | -20 | 45 | 99.2 | -54.4 | -5 | -3 |
| O=C(NC1CCN(Cc2ccccc2)CC1)c1cc(C(=O)NC2CCN(Cc3ccccc3)CC2)cc(C(=O)NC2CCN(Cc3ccccc3)CC2)c1 | 55.2 | 49.6 | 61 | 17.9 | 37 | -3 |
| CC(=O)N1CCN(c2ccc(Oc3ccc(Cl)cc3O)cc2)CC1 | -19 | -24 | -8.5 | 70.9 | -9 | 0 |
| Cn1c(=O)c2cc(C(=O)NCCCN3CCCCCC3)sc2c2ccccc21 | -4.4 | 21 | 13.1 | -8.7 | -2 | -1 |
| O=C(Nc1cccc(Cl)c1)c1cnc(N2CCN(c3ccncc3)CC2)c(Cl)c1 | -35 | -20 | 77.4 | -28.9 | 8 | -4 |
| N=c1c2ccccc2nnn1-c1cccc(C(F)(F)F)c1 | -3.2 | 31.9 | 32.2 | -1.6 | 2 | -5 |
| O=C(Nc1ccc(C(F)(F)F)c(C(F)(F)F)c1)c1cc(Cl)ccc1O | 56 | -28 | 27 | -79.3 | 11 | 1 |
| c1ccc(C[C@@H]2CN(c3nccc(Oc4ccc(-n5ccnc5)cc4)n3)CCN2)cc1 | 10 | -62 | 47 | -146 | -5 | -6 |
| CCCCNc1nc(NC(C)(C)C)nc(NC(C)(C)C)n1 | 15.1 | 74.8 | 54.9 | 64.4 | -11 | -2 |
| CNC(=O)CNc1nc(-c2ccccn2)nc2scc(-c3ccccc3)c12 | 42 | 27 | 47.2 | -36.9 | 5 | -1 |

Whole records, quoted from the list:
`c1ccc(C[C@@H]2CN(c3nccc(Oc4ccc(-n5ccnc5)cc4)n3)CCN2)cc1` is listed as hypnozoite quantity inhibition [1, 4]: 10; hypnozoite quantity inhibition [1, 5]: -62; schizont net growth area inhibition [2, 4]: 47; schizont net growth area inhibition [2, 5]: -146; hepatic nuclei reduction [3, 4] [%]: -5; hepatic nuclei reduction [3, 5] [%]: -6
`Cc1ccc(NC(=O)Nc2cccc(Cl)c2)cc1F` is listed as hypnozoite quantity inhibition [1, 4]: -25.1; hypnozoite quantity inhibition [1, 5]: 38.2; schizont net growth area inhibition [2, 4]: 33.5; schizont net growth area inhibition [2, 5]: 36; hepatic nuclei reduction [3, 4] [%]: -11; hepatic nuclei reduction [3, 5] [%]: -4
